# Results as given in publication PMC9813358, “Insights into the GSDMB-mediated cellular lysis and its targeting by IpaH7.8” (Nature Communications, 2023).
# Sequences of proteins named here, by UniProt entry; tags and fusion partners are left off. Residues count along the entry.
# UniProt P18014, residues 23-565: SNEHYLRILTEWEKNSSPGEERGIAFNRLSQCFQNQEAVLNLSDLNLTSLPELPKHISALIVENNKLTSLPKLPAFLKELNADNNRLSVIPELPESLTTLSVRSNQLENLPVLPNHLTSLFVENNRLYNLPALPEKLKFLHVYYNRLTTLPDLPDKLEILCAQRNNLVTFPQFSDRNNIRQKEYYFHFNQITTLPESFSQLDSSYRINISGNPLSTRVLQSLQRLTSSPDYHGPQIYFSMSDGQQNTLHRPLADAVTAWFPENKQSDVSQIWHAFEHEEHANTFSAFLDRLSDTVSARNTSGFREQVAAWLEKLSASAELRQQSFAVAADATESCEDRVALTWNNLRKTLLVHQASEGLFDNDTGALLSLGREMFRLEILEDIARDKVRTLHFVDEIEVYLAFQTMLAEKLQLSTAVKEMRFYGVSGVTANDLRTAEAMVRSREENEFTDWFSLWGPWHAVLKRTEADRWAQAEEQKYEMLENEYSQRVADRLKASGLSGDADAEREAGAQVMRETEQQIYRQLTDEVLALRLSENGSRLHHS
# Where a chain is given by its changes, count along the chain named. In names and notes the source's numbering stands. These are yes or no findings as the source states them, for the method shown. Some entries that bind do so weakly or less than the wild type.
# B1: human GSDMD (natural protein)
# chain: MGSAFERVVRRVVQELDHGGEFIPVTSLQSSTGFQPYCLVVRKPSSSWFWKPRYKCVNLSIKDILEPDAAEPDVQRGRSFHFYDAMDGQIQGSVELAAPGQAKIAGGAAVSDSSSTSMNVYSLSVDPNTWQTLLHERHLRQPEHKVLQQLRSRGDNVYVVTEVLQTQKEVEVTRTHKREGSGRFSLPGATCLQGEGQGHLSQKKTVTIPSGSTLAFRVAQLVIDSDLDVLLFPDKKQRTFQPPATGHKRSTSEGAWPQLPSGLSMMRCLHNFLTDGVPAEGAFTEDFQGLRAEVETISKELELLDRELCQLLLEGLEGVLRDQLALRALEEALEQGQSLGPVEPLDGPAGAVLECLVLSSGMLVPELAIPVVYLLGALTMLSETQHKLLAEALESQTLLGPLELVGSLLEQSAPWQERSTMSLPPGLLGNSWGEGAPAWVLLDECGLELGEDTPHVCWEPQAQGRMCALYASLALLSGLSQEPH
# notes: also called hGSDMD; WT hGSDMD; source: E. coli BL21 (DE3), purified (same protocol as GSDMB); not shown: His, N-terminal, cleaved; MBP, N-terminal, cleaved
# B2: hGSDMD S124R (natural protein, human, UniProt P57764 1-484, looked up)
# chain: B1 chain with S124R
# notes: GSDMD, human, isoform 1 of UniProtKB P57764; construct as m34; also called hGSDMD bearing the S124R mutation; source: E. coli BL21 (DE3), purified (same protocol as GSDMB); not shown: His, N-terminal, cleaved; MBP, N-terminal, cleaved
# Target: His-tagged IpaH7.8 (Shigella flexneri) (UniProt P18014)
# Test: pull-down; His-tagged IpaH7.8 (~100 µg) on Ni-NTA resin, tag-free GSDMB and hGSDMD proteins (~400 µg) added; 25 mM Tris-HCl pH 8.0, 200 mM NaCl, 3 mM β-mercaptoethanol, 4 °C; wash with 10 mM imidazole; SDS-PAGE; both purified
row,Binder,binding
1,B1,binds
2,B2,binds
